Assay results from patent US20040136985A1, “Methods of modifying behavior of CD9-expressing cells” (priority 2002, published 2004).
For at least one compound, name, drawing or mass did not settle the structure.

How the values were obtained:
CD9-CHO-K1 cells = assay: PI 3-kinase inhibition assay, cell proliferation (CellTiter 96 AQUEOUS); format: cell-based; settings: 36 hours, serial dilution from 250 μg/ml; K1 parental line
CD9-CHO-B2 cells = assay: as above; format: cell-based; settings: 36 hours, serial dilution from 250 μg/ml; B2 parental line
FN/CD9 interaction = assay: ELISA modified for effects of metal salts on the FN/CD9 interaction; parameters: species or system human; settings: FN 100 μg/ml; read-out: half maximal CD9/FN binding
Description: The standard ELISA assay format was modified to evaluate the effects of divalent and monovalent metal salts on the FN/CD9 interaction. The ELISA buffers contained 0.5 mM EGTA and metal salt was excluded from antigen plating and primary wash step. Antigen was plated in Buffer D. The plates were washed once with Buffer E and then blocked with Blocking Buffer 2. Subsequent steps up to and including the second wash after the FN overlay were done in Buffer F, which contained 0-4.5 mM metal salt. After the FN overlay, plates were washed once with Buffer F (+/−metal salt), then twice with Buffer G. The subsequent incubations and washes were performed with Buffer G.

COC[C@H]1OC(=O)c2coc3c2[C@@]1(C)C1=C(C3=O)[C@@H]2CCC(=O)[C@@]2(C)C[C@H]1OC(C)=O [wortmannin]
inhibition of cell growth (CD9-CHO-K1 cells): inhibited the cell growth of CD9-CHO cells derived from either K1 or B2 CHO parental lines in a dose-dependent manner | inhibition of cell growth (CD9-CHO-B2 cells): inhibited the cell growth of CD9-CHO cells derived from either K1 or B2 CHO parental lines in a dose-dependent manner

O=c1cc(N2CCOCC2)oc2c(-c3ccccc3)cccc12 [LY294002]
inhibition of cell growth (CD9-CHO-K1 cells): inhibited the cell growth of CD9-CHO cells derived from either K1 or B2 CHO parental lines in a dose-dependent manner | inhibition of cell growth (CD9-CHO-B2 cells): inhibited the cell growth of CD9-CHO cells derived from either K1 or B2 CHO parental lines in a dose-dependent manner

[Ca+2].[Cl-].[Cl-] [CaCl2]
EC50 (FN/CD9 interaction): ~1000 µM
